For 66 sequences, z-score results are on record in PubChem BioAssay AID1347423 (Functional Genomics Laboratory (NCATS/FGL), 2020).

The whole screen tested about 52,000 sequences, of which about 210 (0.4%) were called active.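 How the source made its calls: active means gene whose silencing raises cell survival under the drug, median off-target-corrected z-score across its silencing RNAs 2 or more; inactive means the rest.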 The list shows a part of the results.

A short description of the assay: Resistance to Poly (ADP-Ribose) Polymerase inhibitor: Gene Identification via Genome-wide siRNA Screen. The note with it: mouse BRCA2 R2336H ES cells, olaparib, CellTiter-Glo viability; active compounds read high. A digest of the protocol:
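Mouse BRCA2 R2336H ES cells were reverse-transfected with siRNA (20 nM final), treated at 48 h with 500 nM olaparib, and read by CellTiter-Glo after 72 h. Scores: MAD-based z per siRNA, median per gene, seed off-target correction.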
With GGAUGAGUGCUCCAAGAUCTT against AW050020, the z-score was inactive: -0.102.
For the sequence GGACUUGAGUGUGAAUCAATT against Anxa1, the z-score is inactive: 1.16.
Turning to GGGAAUAUUUGGAUAACUUTT against Pak7, the z-score is inactive: -0.51.
As to GCAAAGAACGGAAUGCACCTT against Hars2, the z-score was inactive: -0.541.
Next, GGAAAUGUACAUCAUCAAGTT against Cnga2: inactive: 0.696; “GGCCUCAACAUGAUGACUGTT against D230005D02Rik”: inactive: -1.1.
Next, GGAAAACAGUGGUAGCUUATT against Cnp1: inactive: 0.471; CCAAGAAUGUUUCCAUGUUTT against Slc12a5: inactive: -0.938.
Take GGGUUUGAUUCAUCAAAAATT against Peli1: the z-score is inactive: -0.225.
Take GCUAUUAAAAUAUGGGAAGTT against Olfr1314: the z-score was inactive: -1.17.
Regarding “GGUAAUGGGAGCUAGUUUATT against 6330549D23Rik”, the z-score is inactive: 0.0492.
GCUCCAUACUUUCACACGATT against H2-Q7: the z-score is inactive: 0.174.
Turning to GGGAUGUCUGUUGAAAUAATT against Prcc, the z-score is inactive: -1.78.
Next, “CGACAGAAACUAGAAACCCTT against 1500016L11Rik”: inactive: -0.429.
Regarding “GGCCACUUGUGGACAGUUUTT against 2400009B11Rik”, the z-score is inactive: -2.59.
With GGCCCAUUAUGUUUAGUAATT against Gm1553 the figure was inactive: -0.0312.
On to “GCUUCUAGGGAUCCAAUACTT against 9130012D09Rik”, for which the z-score is inactive: -1.49.
GGUCUGCUUUGUCUUGGUGTT against Olfr829: the z-score was inactive: -1.78.
Next, GGCACUAAUUUCACUCUUCTT against Odz4: inactive: -1.77.
With GGCCCACAAUGUGAUUUUATT against Psap the figure was inactive: 1.68; with CGAUGGAUAAACCUACACCTT against Clmn, inactive: -1.36; with GGUUUUGAUAACAGAACAUTT against Capza2, inactive: -0.212.
With GGGAAGCAGUGCUUCUUAGTT against Dars the figure was inactive: -0.514; with GGUUAUUAAGAGCACUUUCTT against Catsper3, inactive: -0.553.
With “CCACCCAACAUCUAUGAGGTT against 1700037C18Rik”, the z-score was inactive: 1.11.
With GCUUGCCUAAUGAAACCUUTT against Gm964 the figure was inactive: 0.504; with GGACAACAUGAACUGUCAGTT against Snrpd3, inactive: -2.78; with CCUAUUCUUAACACCCUUGTT against Trfr2, inactive: -0.465.
With GGUCUCCUGUGGAAAUAUCTT against Olfr659 the figure was inactive: 0.454.
Next, GGAAACUGUGUCAUUAUUATT against Arhgap9: inactive: -0.326.
With “CCGUUGUGAACUACAAGCUTT against 2700038N03Rik”, the z-score was inactive: 1.53.
With “GGUCUCUUUCAUGCUCGCATT against E030025L21Rik”, the z-score is inactive: 1.64.
As to GGCCUCUCAUUUCUAGUCATT against Kdelr2, the z-score is inactive: 0.95.
With GGUGAUGCUUCUUGGAGACTT against Rab37, the z-score was inactive: 0.0636.
Consider GCAGUACGGGACAUCCACUTT against Bing4, for which the z-score was inactive: -0.538.
As for GGCUAGAGCAUCAAGGAAUTT against Vps26, the z-score was inactive: 0.604.
With CCCACUUCGAGAGAAAAACTT against Pafah1b3 the figure was inactive: 1.21; with GGUAAGAAGACAAACACUCTT against Ly6g6d, inactive: -0.432.
As to GGUCUACGGCACCUUCUAUTT against Bsnd, the z-score was inactive: -0.485.
With GGAAUAUGCCCAAGUUUUUTT against Catna1 the figure was inactive: -1.86; with GGCUCUGUCCAACAUGAUGTT against Tnnt2, inactive: 0.34; with GCCAAGCUCGCCAAGAUUATT against P4ha2, inactive: 0.0302.
On to “CCAGAGAUUCCAACUUAAATT against C130096D04Rik”, for which the z-score was inactive: -0.44.
Turning to “GCGGAAGUAUUACCAAGACTT against 1700001C02Rik”, the z-score was inactive: -2.49.
As to GGAGGAAUCUUGGGUCUGATT against LOC237891, the z-score is inactive: -0.422.
Next, GGUCAAUUCCCAUACCCUGTT against Trfr2: inactive: 0.815.
As for CCUACACAUACAUUGAUGATT against Eppk1, the z-score was inactive: 0.563.
Next, GCCUAAAUGAUGGUGCUUGTT against Klf4: inactive: 5.17.
On to “CGAAGUAAAUGUGAAUAGATT against 2610312E17Rik”, for which the z-score was inactive: -0.714.
As for GGUGUUUAAACAGCACUGCTT against ORF63, the z-score was inactive: 0.162.
Next, “GCUCAACUCAAAGCCUGUATT against 2310061N23Rik”: inactive: -1.96; GGGUUUCCAAGACAGACUATT against Il12rb1: inactive: -2.13; GGACAUGAGGACACCAUUGTT against Saa1: inactive: -0.33.
As to “CCAUUGUACAGAAAAACACTT against 3110057O12Rik”, the z-score was inactive: -0.504.
Take CGGUUAUCUAGACUUAAAATT against BC029103: the z-score is inactive: -0.231.
Next, GAUUUGGUGUCUGCCGAGATT against ORF31: inactive: 0.792; GGAAAAAGUUGGCAUCAUUTT against Zswim4: inactive: -0.512; GGAAAGCCAGAAAAUUCACTT against Ian6: inactive: 1.13.
On to “GGACCUUCUAUUAUUUGUATT against 5330408M12Rik”, for which the z-score was inactive: 1.2.
Take GGAUGAGUUUUUAAAGUCATT against Otop2: the z-score is inactive: -1.
With GGCUUUCCUCCAGAUAAACTT against Il6st the figure was inactive: 0.443; with CGCUUAUCAUGAACAAAGATT against C8b, inactive: -0.614.
As to “GGUUUUGUACUUUCAUAGATT against 4632417K18Rik”, the z-score is inactive: 0.686.
Next, “GGUACCAAUUGAAGAUAUATT against 9030406N13Rik”: inactive: 0.558; “CCACACAAUCCAGUUAUAATT against 1700055D18Rik”: inactive: -0.192; “GGCCAAAAUCGGGCAAGAATT against 1110028N05Rik”: inactive: -1.49.
